The list does not hold the whole screen: it is rich in T/C values a quarter to a half above the control, in often repeated tests (any T/C) and in doses without a T/C. Other doses and runs of a compound stand elsewhere. T/C is the treated group as % of the vehicle group. Some doses have a count of surviving animals in place of a T/C: the source holds a T/C of zero for them, seemingly a mark for toxic or unscored doses. Some survivor counts are full or nearly so, which does not show that the dose was tolerated: the source hardly ever lists a survival T/C far under the control, and the zero likely stands for such cases as well. Counts of survivors are from the toxicity check (mostly the fifth day) where no day follows; animals may have died later. Schedule codes are those of the source, read here as Q, the interval in days (D) or hours (H), X, the number of doses. Some entries were tested several times; the results are listed from low to high. Some schedules carry Z or #; the key to these is not given. For survival time, this PubChem deposit counts one and a half times the control or more as active, and values a quarter to a half above the control carry no call in these data; other NCI protocols may use other cut-offs. Some T/C values are followed by the survivors on the day toxicity was checked, most often the fifth; without a count, all were alive then.
Tested on: L1210 leukemia ip in BDF1 mice, survival T/C
Test: NCI In Vivo Anticancer Drug Screen. Data for tumor model L1210 Leukemia (intraperitoneal) in B6D2F1 (BDF1) mice
Conditions: T/C endpoint: mean survival time, higher T/C = longer survival
[1] = dose: 100.0 mg/kg/injection, schedule: Q01DX009 (ip), vehicle: Klucel (hydroxypropylcellulose) (HPC)
[2] = dose: 400.0 mg/kg/injection, schedule: Q01DX001 (ip), vehicle: saline
[3] = dose: 200.0 mg/kg/injection, schedule: Q01DX009 (ip), vehicle: saline
[4] = dose: 400.0 mg/kg/injection, schedule: Q04DX003 (ip), vehicle: saline with Tween-80
[5] = dose: 100.0 mg/kg/injection, schedule: Q04DX003 (ip), vehicle: saline with Tween-80
[6] = dose: 200.0 mg/kg/injection, schedule: Q04DX003 (ip), vehicle: saline with Tween-80
[7] = dose: 400.0 mg/kg/injection, schedule: Q01DX001 (ip), vehicle: carboxymethylcellulose (CMC)
[8] = dose: 200.0 mg/kg/injection, schedule: Q01DX001 (ip), vehicle: carboxymethylcellulose (CMC)
[9] = dose: 400.0 mg/kg/injection, schedule: Q01DX009 (ip), vehicle: saline with Tween-80
[10] = dose: 400.0 mg/kg/injection, schedule: Q04DX003 (ip), vehicle: saline
[11] = dose: 400.0 mg/kg/injection, schedule: Q01DX009 (ip), vehicle: Klucel (hydroxypropylcellulose) (HPC)
[12] = dose: 200.0 mg/kg/injection, schedule: Q01DX009 (ip), vehicle: Klucel (hydroxypropylcellulose) (HPC)

## CCSCC1OC(n2cnc3c(N)nc(F)nc32)C(O)C1O (stereo not drawn)
[1]
  survivor count: 6 of 6
dose: 400.0 mg/kg/injection, schedule: Q01DX001 (ip), vehicle: Klucel (hydroxypropylcellulose) (HPC)
  survivor count: 0 of 6

## CCCCCCCCCCCCC(CC(=O)O)C(=O)N(CCO)CCO (stereo not drawn)
dose: 100.0 mg/kg/injection, schedule: Q01DX001 (ip), vehicle: saline
  survivor count: 0 of 3
[2]
  survivor count: 0 of 3

## NS(=O)(=O)c1ccc(Cl)cc1
[3]
  survivor count: 0 of 6
[4]
  survivor count: 4 of 6

## c1ccc(-c2nc(N3CCOCC3)nc3ccccc23)cc1
dose: 50.0 mg/kg/injection, schedule: Q01DX009 (ip), vehicle: saline with Tween-80
  survivor count: 6 of 6

## COc1ccc(CN2CCCN(Cc3ccc(OC)cc3)C2c2ccc(NC(C)=O)cc2)cc1
dose: 400.0 mg/kg/injection, schedule: Q01DX001 (ip), vehicle: acetone
  survivor count: 2 of 4

## [N-]=[N+]=CC(=O)NCC(=O)NO
dose: 130.0 mg/kg/injection, schedule: Q01DX008 (ip), vehicle: water
  T/C: 135 % of control
dose: 180.0 mg/kg/injection, schedule: Q01DX009 (ip), vehicle: water
  T/C: 136 % of control
dose: 200.0 mg/kg/injection, schedule: Q01DX008 (ip), vehicle: water
  T/C: 133 % of control
dose: 300.0 mg/kg/injection, schedule: Q01DX008 (ip), vehicle: water
  T/C: 139 % of control
dose: 400.0 mg/kg/injection, schedule: Q01DX009 (ip), vehicle: water
  T/C: 146 % of control
dose: 450.0 mg/kg/injection, schedule: Q01DX009 (ip), vehicle: other
  T/C: 130 % of control [5 of 6 alive]
dose: 600.0 mg/kg/injection, schedule: Q01DX001 (ip), vehicle: water
  T/C: 128 % of control
dose: 600.0 mg/kg/injection, schedule: Q01DX009 (ip), vehicle: water
  survivor count: 5 of 6
dose: 800.0 mg/kg/injection, schedule: Q01DX001 (ip), vehicle: water
  T/C: 126 % of control
dose: 1200.0 mg/kg/injection, schedule: Q01DX001 (ip), vehicle: water
  T/C: 142 % of control
dose: 2000.0 mg/kg/injection, schedule: Q01DX001 (ip), vehicle: water
  survivor count: 3 of 6

## CCCCCCCCCCCCOP(=S)(S)OCCCCCCCCCCCC (tested in a mixture with another compound)
[1]
  survivor count: 1 of 3
dose: 200.0 mg/kg/injection, schedule: Q04DX002 (ip), vehicle: Klucel (hydroxypropylcellulose) (HPC)
  survivor count: 1 of 3
dose: 400.0 mg/kg/injection, schedule: Q04DX002 (ip), vehicle: Klucel (hydroxypropylcellulose) (HPC)
  survivor count: 0 of 3

## Cc1nc2ccccc2nc1CBr
[5]
  survivor count: 6 of 6
[6]
  survivor count: 3 of 6
[4]
  survivor count: 3 of 6

## O=C(Nc1ccc(NC(=O)Nc2cccc(C3=NCCCN3)c2)cc1)Nc1ccc(C2=NCCCN2)cc1
dose: 5.0 mg/kg/injection, schedule: Q01DX Z (ip), vehicle: carboxymethylcellulose (CMC)
  T/C: 125 % of control [5 of 6 alive]
dose: 7.5 mg/kg/injection, schedule: Q01DX Z (ip), vehicle: carboxymethylcellulose (CMC)
  T/C: 137 % of control
dose: 10.0 mg/kg/injection, schedule: Q01DX Z (ip), vehicle: carboxymethylcellulose (CMC)
  T/C: 137 % of control
dose: 34.0 mg/kg/injection, schedule: Q01DX Z (ip), vehicle: carboxymethylcellulose (CMC)
  survivor count: 0 of 6
dose: 68.0 mg/kg/injection, schedule: Q01DX Z (ip), vehicle: carboxymethylcellulose (CMC)
  survivor count: 0 of 6

## CC(O)C[As](=O)(O)c1ccccc1Cl (stereo not drawn)
dose: 25.0 mg/kg/injection, schedule: Q04DX003 (ip), vehicle: saline with Tween-80
  survivor count: 3 of 6
dose: 50.0 mg/kg/injection, schedule: Q04DX003 (ip), vehicle: saline with Tween-80
  survivor count: 0 of 6
[5]
  survivor count: 0 of 6 and 1 of 6
[6]
  survivor count: 0 of 6
[4]
  survivor count: 0 of 6

## CCOc1ccc([N+](=O)[O-])cc1CNCCCl
dose: 200.0 mg/kg/injection, schedule: Q04DX003 (ip), vehicle: Klucel (hydroxypropylcellulose) (HPC)
  survivor count: 6 of 6
dose: 400.0 mg/kg/injection, schedule: Q04DX003 (ip), vehicle: Klucel (hydroxypropylcellulose) (HPC)
  survivor count: 6 of 6

## O=CNc1c(Cl)c(Cl)c2c(c1Cl)Cc1cc(Cl)ccc1-2
dose: 300.0 mg/kg/injection, schedule: Q01DX009 (ip), vehicle: saline with Tween-80
  survivor count: 3 of 6
[7]
  survivor count: 4 of 4
[2]
  survivor count: 5 of 6

## CCCCC(CCC)(CCN)CCCC
dose: 32.0 mg/kg/injection, schedule: Q04DX003 (ip), vehicle: Klucel (hydroxypropylcellulose) (HPC)
  survivor count: 6 of 6
dose: 50.0 mg/kg/injection, schedule: Q01DX001 (ip), vehicle: carboxymethylcellulose (CMC)
  survivor count: 0 of 4 and 2 of 4
dose: 100.0 mg/kg/injection, schedule: Q01DX001 (ip), vehicle: carboxymethylcellulose (CMC)
  survivor count: 0 of 4
[8]
  survivor count: 0 of 4
[7]
  survivor count: 0 of 4

## NC(N)=N/N=C/NN/C=N/N=C(N)N
dose: 120.0 mg/kg/injection, schedule: Q01DX Z (ip), vehicle: saline
  T/C: 130 % of control
dose: 240.0 mg/kg/injection, schedule: Q01DX Z (oral), vehicle: saline
  survivor count: 1 of 6
dose: 480.0 mg/kg/injection, schedule: Q01DX Z (oral), vehicle: saline
  survivor count: 0 of 6
dose: 960.0 mg/kg/injection, schedule: Q01DX Z (oral), vehicle: saline
  survivor count: 0 of 6

## COc1ccc(CN(N=O)c2ccc(C(=O)O)cc2)cc1
[9]
  survivor count: 2 of 6

## C=C1N2CCC(CC2)C1(O)c1ccccc1 (stereo not drawn)
dose: 25.0 mg/kg/injection, schedule: Q04DX003 (ip), vehicle: Klucel (hydroxypropylcellulose) (HPC)
  survivor count: 1 of 6
dose: 50.0 mg/kg/injection, schedule: Q04DX003 (ip), vehicle: Klucel (hydroxypropylcellulose) (HPC)
  survivor count: 0 of 6
dose: 100.0 mg/kg/injection, schedule: Q04DX003 (ip), vehicle: saline
  survivor count: 0 of 6
dose: 200.0 mg/kg/injection, schedule: Q04DX003 (ip), vehicle: saline
  survivor count: 0 of 6
[10]
  survivor count: 0 of 6

## O=C(NCCCl)NC(C1CC1)C1CC1
[9]
  survivor count: 3 of 6

## [O-][n+]1ccc(N2CCOCC2)cc1
dose: 200.0 mg/kg/injection, schedule: Q01DX001 (ip), vehicle: saline
  survivor count: 1 of 6
[2]
  survivor count: 0 of 6

## Nc1ncnc2c1c1c(N)[nH]nc1n2C1OC(CO)C(O)C1O (stereo not drawn)
dose: 100.0 mg/kg/injection, schedule: Q01DX009 (ip), vehicle: saline
  T/C: 149 % of control

## COC(=O)C(C)(N)Cc1ccc(O)c(C)c1 (stereo not drawn)
[11]
  survivor count: 3 of 6

## CN(C)CCCCl
dose: 75.0 mg/kg/injection, schedule: Q01DX009 (ip), vehicle: saline
  survivor count: 6 of 6
dose: 150.0 mg/kg/injection, schedule: Q01DX009 (ip), vehicle: saline
  survivor count: 0 of 6
dose: 150.0 mg/kg/injection, schedule: Q01DX Z (ip), vehicle: other
  survivor count: 3 of 6
dose: 300.0 mg/kg/injection, schedule: Q04DX003 (ip), vehicle: saline
  survivor count: 2 of 6

## CC1=NS(=O)(=O)NC(C)(C)C1
[8]
  survivor count: 0 of 4
[12]
  survivor count: 2 of 6
[7]
  survivor count: 0 of 4
[11]
  survivor count: 0 of 6

## CCCNC(=S)Nc1ccccc1
dose: 300.0 mg/kg/injection, schedule: Q01DX001 (ip), vehicle: other
  survivor count: 3 of 6

## O=C(O)CCCCCCCCCCNC(=O)Nc1cccc(C(F)(F)F)c1
dose: 400.0 mg/kg/injection, schedule: Q04DX003 (ip), vehicle: gum acacia
  T/C: 149 % of control

## OCCOCCN1CCN(C(c2ccccc2)c2ccc(Cl)cc2)CC1 (stereo not drawn)
[3]
  survivor count: 0 of 6
[10]
  survivor count: 0 of 4

## COc1ccc(OC)c(NC(=O)Nc2cc(C(F)(F)F)ccc2Cl)c1
[12]
  survivor count: 5 of 6

— PubChem BioAssay AID248 (DTP/NCI, 2004)
